Values of other authors as cited in patent US11963942B2, “Oral taxane compositions and methods” (Athenex HK Innovative Limited, priority 2015, dated 2024).

## CC(=O)O[C@H]1C(=O)[C@@]2(C)[C@H]([C@H](OC(=O)c3ccccc3)[C@]3(O)C[C@H](OC(=O)[C@H](O)[C@@H](NC(=O)c4ccccc4)c4ccccc4)C(C)=C1C3(C)C)[C@]1(OC(C)=O)CO[C@@H]1C[C@@H]2O [paclitaxel]
  solubility in water: less than 0.01 mg/mL
